Counter-ions that a name gives are not always drawn. Like-named read-outs stand apart in the source and are kept apart here.
Test system: TFEB
Experiment: High content TFEB-GFP nuclear translocation assay
Assay type: cell-based
Settings: read-out: Average EC50
Method: Immunoblotting of protein extracts isolated from HeLa cells treated overnight, as indicated. Membranes were probed with antibodies for p-T202/Y204-ERK1/2, ERK1/2, p-T389-S6K, and S6K to measure ERK and mTORC1 activities. […] FLAG immunoblotting of cytosolic and nuclear fractions isolated from TFEB-3×FLAG HeLa cells cultured in amino acid-free media and subsequently stimulated as indicated for at least 3 h. Correct subcellular fractionation was verified with H3 and tubulin antibodies. […] The EC50 for each compound was calculated using Prism software (see Materials and Methods for details). […] TFEB localization was detected with a FLAG antibody, whereas tubulin and H3 were used as controls for the cytosolic and nuclear fraction, respectively; levels of S6K phosphorylation were used to test RagC and RagD knockdown efficiency.
After 3 hours at 37° C. in RPMI medium cells were washed, fixed, and stained with DAPI. […] The script calculates the ratio value resulting from the average intensity of nuclear TFEB-GFP fluorescence divided by the average of the cytosolic intensity of TFEB-GFP fluorescence. […] The EC50 for each compound was calculated using non-linear regression fitting (Prism software). […]

| SMILES | EC50 (mobilization of cytosolic TFEB to the nucleus, TFEB-GFP HeLa cells, 3 h at 37° C. in RPMI, ten concentrations 50 μM to 2.54 nM, 4 runs) | EC50 (Homo sapiens, HeLa, 3 h) |
| --- | --- | --- |
| Cc1ccc(NC(=O)c2ccc(CN3CCN(C)CC3)cc2)cc1Nc1nccc(-c2cccnc2)n1 [Imatinib Mesylate STI571, Imatinib Mesylate] | < 7 µM | – |
| C[S+]([O-])c1ccc(-c2nc(-c3ccc(F)cc3)c(-c3ccncc3)[nH]2)cc1 (centres unmarked) [SB203580] | – | 7 to 15 µM |
